{
  "source": "PubChem BioAssay AID2685",
  "about": "(National Center for Advancing Translational Sciences (NCATS), 2010)",
  "assay": "qHTS Assay for Lipid Storage Modulators in Drosophila S3 Cells;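 for cell number change: cells counted by Cell Tracker Red CMTPX staining in the red channel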",
  "details": "BODIPY lipid droplet fluorescence, 18-24 h; for cell number change: measured here: cell count max response, cells fed with added oleic acid",
  "procedure,_shortened": "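Drosophila S3 cells got compounds at several concentrations plus oleic acid (400 uM solution). Laser-scanning cytometry with 488 nm excitation read lipid droplets at 500-530 nm and cells at 575-640 nm. Percent activity was relative to 20 uM Triacsin C.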",
  "key": {"[1]": {"details": "measured here: cell number channel AC50, cells fed with added oleic acid"}, "[2]": {"details": "measured here: lipid fluorescence (Fed channel) AC50, cells fed with added oleic acid"}},
  "note": "This is one part of the list. Further columns of the screen follow, without active or inactive calls. Compounds called inactive in the main read-out are mostly missing here. Potencies come from curve fits of mixed quality, noted in brackets.",
  "data": [
    {"molecule": "C=CCn1cnc2c(NCc3ccccc3)ncnc21", "values": [
      {"measurement": "AC50", "setting": "[1]", "value": "0.146 µM [rising, full curve, poor fit]"},
      {"measurement": "AC50", "setting": "[2]", "value": "0.206 µM [rising, full curve, poor fit]"}
    ]},
    {"molecule": "C=CCN(c1ccccc1C(=O)NCC(=O)O)S(=O)(=O)c1ccc(C)cc1", "values": [
      {"measurement": "cell number change", "value": -49, "unit": "%"},
      {"measurement": "AC50", "setting": "[1]", "value": "29.1 µM [falling, single point]"},
      {"measurement": "AC50", "setting": "[2]", "value": "29.1 µM [falling, single point]"}
    ]},
    {"molecule": "Cc1ccc2c(CC(=O)NNC(=O)c3ccccc3)coc2c1", "values": [
      {"measurement": "cell number change", "value": -7.16, "unit": "%"},
      {"measurement": "AC50", "setting": "[1]", "value": "0.13 µM [falling, full curve, poor fit]"}
    ]},
    {"molecule": "CC(=O)N1CC2(CC(=O)OC(C)C)CN(C(C)=O)CC(CC(=O)OC(C)C)(C1)C2=O", "values": [
      {"measurement": "cell number change", "value": -3.04, "unit": "%"},
      {"measurement": "AC50", "setting": "[1]", "value": "0.0082 µM [falling, full curve, poor fit]"}
    ]},
    {"molecule": "COc1ccc(/C=C(/NC(=O)c2ccccc2)C(=O)N2CCCCC2)cc1", "values": [
      {"measurement": "cell number change", "value": 1.47, "unit": "%"},
      {"measurement": "AC50", "setting": "[2]", "value": "4.61 µM [rising, full curve]"}
    ]},
    {"molecule": "Oc1cccc2ccc(/C=C/c3ccccc3Br)nc12", "values": [
      {"measurement": "cell number change", "value": -8.38, "unit": "%"},
      {"measurement": "AC50", "setting": "[2]", "value": "0.00517 µM [rising, full curve, poor fit]"}
    ]},
    {"molecule": "COc1ccc(C(C)(C)C)cc1NC(=O)COC(=O)C1=NNC(=O)CC1", "values": [
      {"measurement": "cell number change", "value": -5.36, "unit": "%"},
      {"measurement": "AC50", "setting": "[2]", "value": "16.4 µM [rising, partial curve]"}
    ]},
    {"molecule": "O=C(Nc1ccccc1)Nc1cnccn1", "values": [
      {"measurement": "cell number change", "value": -21, "unit": "%"}
    ]},
    {"molecule": "COc1ccccc1NC(=O)CCSc1nc(C)cc(C)n1", "values": [
      {"measurement": "cell number change", "value": 8.95, "unit": "%"},
      {"measurement": "AC50", "setting": "[2]", "value": "2.06 µM [rising, partial curve]"}
    ]},
    {"molecule": "N#C/C(=C\\N1CCOCC1)c1ccccc1", "values": [
      {"measurement": "AC50", "setting": "[2]", "value": "0.116 µM [falling, full curve, poor fit]"}
    ]},
    {"molecule": "CCCc1c(O)nc(SCC(=O)NCCc2ccc(OC)c(OC)c2)[nH]c1=O", "values": [
      {"measurement": "cell number change", "value": -159, "unit": "%"},
      {"measurement": "AC50", "setting": "[1]", "value": "29.1 µM [falling, partial curve]"}
    ]},
    {"molecule": "CCCCN1C(=O)c2ccc(C(=O)Nc3ccc(S(=O)(=O)N(C)C)cc3)cc2C1=O", "values": [
      {"measurement": "cell number change", "value": -83.3, "unit": "%"},
      {"measurement": "AC50", "setting": "[1]", "value": "18.4 µM [falling, single point]"},
      {"measurement": "AC50", "setting": "[2]", "value": "4.11 µM [falling, partial curve]"}
    ]},
    {"molecule": "COCCN(Cc1cc2cc(C)ccc2n2nnnc12)C(=S)Nc1cccc(C)c1", "values": [
      {"measurement": "cell number change", "value": 33.4, "unit": "%"},
      {"measurement": "AC50", "setting": "[2]", "value": "1.84 µM [rising, partial curve, poor fit]"}
    ]},
    {"molecule": "O=S(=O)(c1ccc2ccccc2c1)N1CCN(C(=S)Nc2ccc(F)cc2)CC1", "values": [
      {"measurement": "cell number change", "value": -13.3, "unit": "%"}
    ]},
    {"molecule": "O=C(c1ccccc1)[C@H]1CC=CC[C@H]1C(=O)O", "values": [
      {"measurement": "cell number change", "value": -61.8, "unit": "%"},
      {"measurement": "AC50", "setting": "[1]", "value": "20.6 µM [falling, single point]"},
      {"measurement": "AC50", "setting": "[2]", "value": "29.1 µM [falling, single point]"}
    ]},
    {"molecule": "Brc1ccc(-c2noc(COc3ccc4ccccc4c3)n2)o1", "values": [
      {"measurement": "cell number change", "value": 50.6, "unit": "%"},
      {"measurement": "AC50", "setting": "[1]", "value": "1.84 µM [rising, full curve]"},
      {"measurement": "AC50", "setting": "[2]", "value": "2.06 µM [rising, partial curve]"}
    ]},
    {"molecule": "O=C(O)c1ccc(Nc2nc(-c3ccccc3)c3ccccc3n2)cc1", "values": [
      {"measurement": "cell number change", "value": 11.3, "unit": "%"},
      {"measurement": "AC50", "setting": "[2]", "value": "0.58 µM [falling, single point]"}
    ]},
    {"molecule": "Cc1cc(NCCO)c2cc(O)ccc2n1", "values": [
      {"measurement": "cell number change", "value": -13, "unit": "%"},
      {"measurement": "AC50", "setting": "[2]", "value": "0.146 µM [falling, full curve, poor fit]"}
    ]},
    {"molecule": "CCNc1nc(NCC)n2c(SCC(=O)N(CC)C3CCCCC3)nnc2n1", "values": [
      {"measurement": "cell number change", "value": 22.4, "unit": "%"},
      {"measurement": "AC50", "setting": "[1]", "value": "1.84 µM [rising, partial curve, poor fit]"},
      {"measurement": "AC50", "setting": "[2]", "value": "1.3 µM [rising, full curve, poor fit]"}
    ]},
    {"molecule": "COc1ccc(-c2nc3c(c4nnc(SC(C)C(=O)Nc5ccc(C)cc5)n24)COC(C)(C)C3)cc1", "note": "(stereo unspecified)", "values": [
      {"measurement": "cell number change", "value": 2.2, "unit": "%"},
      {"measurement": "AC50", "setting": "[2]", "value": "0.146 µM [rising, full curve, poor fit]"}
    ]},
    {"molecule": "Cn1ccsc1=NC(=O)c1ccc(S(C)(=O)=O)c([N+](=O)[O-])c1", "values": [
      {"measurement": "cell number change", "value": 5.95, "unit": "%"}
    ]},
    {"molecule": "Cn1ncc2c(N3CCN(c4ccccc4F)CC3)ncnc21", "values": [
      {"measurement": "AC50", "setting": "[2]", "value": "4.61 µM [rising, partial curve]"}
    ]},
    {"molecule": "C(#CCN1CCC(Cc2ccccc2)CC1)COCCOCc1ccccc1", "values": [
      {"measurement": "cell number change", "value": 64.8, "unit": "%"},
      {"measurement": "AC50", "setting": "[1]", "value": "20.6 µM [rising, single point]"},
      {"measurement": "AC50", "setting": "[2]", "value": "29.1 µM [rising, single point]"}
    ]},
    {"molecule": "CSc1ncc(C(=O)Nc2cccc(Cl)c2C)c(C)n1", "values": [
      {"measurement": "AC50", "setting": "[2]", "value": "8.2 µM [rising, partial curve, poor fit]"}
    ]},
    {"molecule": "O=C(Nc1c(Cl)cc(Cl)cc1-c1nc2ccccc2s1)c1ccc(Br)o1", "values": [
      {"measurement": "cell number change", "value": 3.17, "unit": "%"},
      {"measurement": "AC50", "setting": "[2]", "value": "0.651 µM [rising, single point]"}
    ]},
    {"molecule": "CCN=C1S/C(=C\\c2cc(Br)ccc2OCC(=O)OCC)C(=O)N1CC", "values": [
      {"measurement": "cell number change", "value": -50, "unit": "%"},
      {"measurement": "AC50", "setting": "[1]", "value": "32.6 µM [falling, single point]"}
    ]},
    {"molecule": "CCOc1ccc(CN(C)C(=O)CNC(=O)C2CCCCC2)cc1", "values": [
      {"measurement": "cell number change", "value": -14.1, "unit": "%"},
      {"measurement": "AC50", "setting": "[2]", "value": "5.17 µM [falling, single point]"}
    ]},
    {"molecule": "COC(=O)c1ccc(NC(=O)CSc2nnc(C3CC3)n2C)cc1", "values": [
      {"measurement": "cell number change", "value": 20, "unit": "%"},
      {"measurement": "AC50", "setting": "[2]", "value": "1.16 µM [rising, full curve]"}
    ]},
    {"molecule": "Cc1ccc2ncc(NC(=O)c3ccc(F)cc3)c(=O)n2c1", "values": [
      {"measurement": "cell number change", "value": 14.2, "unit": "%"}
    ]},
    {"molecule": "O=C(COC(=O)CNC(=O)c1ccccc1Cl)Nc1ccccc1Cl", "values": [
      {"measurement": "cell number change", "value": -41.3, "unit": "%"},
      {"measurement": "AC50", "setting": "[1]", "value": "3.26 µM [falling, partial curve, poor fit]"}
    ]},
    {"molecule": "COc1ccc(OCc2nnc(SCC(=O)NNC(=O)c3ccc(C)cc3)n2C)cc1", "values": [
      {"measurement": "cell number change", "value": 3.58, "unit": "%"},
      {"measurement": "AC50", "setting": "[2]", "value": "0.731 µM [rising, partial curve, poor fit]"}
    ]},
    {"molecule": "Cc1nc(S(=O)(=O)Cc2ccccc2Cl)nc2c1CCC2", "values": [
      {"measurement": "cell number change", "value": 27.6, "unit": "%"}
    ]},
    {"molecule": "O=C1Nc2ccccc2S/C1=C/c1cccs1", "values": [
      {"measurement": "cell number change", "value": 33.4, "unit": "%"},
      {"measurement": "AC50", "setting": "[1]", "value": "9.2 µM [rising, partial curve]"}
    ]},
    {"molecule": "Nc1c(N2CCOCC2)cc(Cl)c2nonc12", "values": [
      {"measurement": "cell number change", "value": 2.47, "unit": "%"},
      {"measurement": "AC50", "setting": "[2]", "value": "29.1 µM [rising, single point]"}
    ]},
    {"molecule": "CCOC(=O)c1ccc(-n2c(CCC(=O)O)ccc2-c2ccccc2)cc1", "values": [
      {"measurement": "cell number change", "value": 23.4, "unit": "%"},
      {"measurement": "AC50", "setting": "[1]", "value": "0.103 µM [rising, full curve, poor fit]"},
      {"measurement": "AC50", "setting": "[2]", "value": "6.51 µM [rising, single point]"}
    ]},
    {"molecule": "Cc1nn(-c2ccc(NC(=O)c3ccncc3)cc2)c(C)c1Cl", "values": [
      {"measurement": "cell number change", "value": -44.5, "unit": "%"},
      {"measurement": "AC50", "setting": "[1]", "value": "8.2 µM [falling, partial curve, poor fit]"}
    ]},
    {"molecule": "CCCCOC(=O)Cn1c2ccc(OC)cc2c2nc3ccccc3nc21", "values": [
      {"measurement": "cell number change", "value": 12.1, "unit": "%"},
      {"measurement": "AC50", "setting": "[2]", "value": "6.51 µM [rising, single point]"}
    ]},
    {"molecule": "CC(=O)Nc1ccc(S(=O)(=O)N(Cc2cccnc2)Cc2cc3ccc(C)cc3[nH]c2=O)cc1", "values": [
      {"measurement": "cell number change", "value": -30.1, "unit": "%"},
      {"measurement": "AC50", "setting": "[1]", "value": "0.082 µM [falling, full curve, poor fit]"},
      {"measurement": "AC50", "setting": "[2]", "value": "0.58 µM [rising, single point]"}
    ]}
  ]
}
